Measured values published in the supplement of paper PMC12669032.
For some of these results: This list holds what a sample rich in hits left over.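 Rule for the calls: active = AUC reduced over 20% with Padj below 0.05 in at least 2 of 3 replicates; inactive = otherwise.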 This is a selection; strong and weak results do not stand in their true shares.

How the values were obtained:
Assay in all cases: growth AUC relative to DMSO control (median of replicates) (fraction); higher = more growth (less inhibition), active = hit call of the paper
Details in all cases: 20 µM; 24 h
Akkermansia muciniphila = test system: Akkermansia muciniphila
Summary of the method: (§1)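 Each value is the median of three biological replicates, grown on separate days, of a gut bacterial monoculture incubated anaerobically at 37 °C in mGAM with 20 µM compound (1% DMSO). Cultures started at OD600 0.05 and were read at OD600 hourly for 24 h, with the minimum OD set to 0. Area under the growth curve was normalised to the plate median of solvent-only wells, or to row and column medians on the industrial chemical plate.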

Bacteroides caccae = test system: Bacteroides caccae
Summary of the method: as §1

Bacteroides clarus = test system: Bacteroides clarus
Summary of the method: as §1

Bacteroides dorei = test system: Bacteroides dorei
Summary of the method: as §1

Bacteroides stercoris = test system: Bacteroides stercoris
Summary of the method: as §1

[1] = test system: Bacteroides thetaiotaomicron
Summary of the method: as §1

Bacteroides uniformis = test system: Bacteroides uniformis
Summary of the method: as §1

[2] = test system: Bifidobacterium longum subsp. longum
Summary of the method: as §1

Clostridium difficile = test system: Clostridium difficile
Summary of the method: as §1

Collinsella aerofaciens = test system: Collinsella aerofaciens
Summary of the method: as §1

Coprococcus comes = test system: Coprococcus comes
Summary of the method: as §1

Escherichia coli ED1a = test system: Escherichia coli ED1a
Summary of the method: as §1

Escherichia coli IAI1 = test system: Escherichia coli IAI1
Summary of the method: as §1

Eubacterium rectale = test system: Eubacterium rectale
Summary of the method: as §1

[3] = test system: Fusobacterium nucleatum subsp. animalis
Summary of the method: as §1

Lactobacillus gasseri = test system: Lactobacillus gasseri
Summary of the method: as §1

Lactobacillus paracasei = test system: Lactobacillus paracasei
Summary of the method: as §1

Odoribacter splanchnicus = test system: Odoribacter splanchnicus
Summary of the method: as §1

[4] = test system: Parabacteroides distasonis
Summary of the method: as §1

Parabacteroides merdae = test system: Parabacteroides merdae
Summary of the method: as §1

Roseburia intestinalis = test system: Roseburia intestinalis
Summary of the method: as §1

Streptococcus salivarius = test system: Streptococcus salivarius
Summary of the method: as §1

Measured: growth AUC

Oc1c(Cl)cc(Cl)cc1Cl
inactive: Akkermansia muciniphila 1.05 | Bacteroides caccae 0.981 | Bacteroides clarus 0.97 | Bacteroides dorei 1.01 | Bacteroides stercoris 1.06 | [1] 1.01 | Bacteroides uniformis 0.97 | [2] 0.916 | Clostridium difficile 1.01 | Collinsella aerofaciens 0.983 | Coprococcus comes 0.992 | Escherichia coli ED1a 0.979 | Escherichia coli IAI1 = 0.968 | Eubacterium rectale 0.999 | [3] 0.965 | Lactobacillus gasseri 0.931 | Lactobacillus paracasei 1.03 | Odoribacter splanchnicus 0.992 | [4] 0.988 | Parabacteroides merdae 0.971 | Roseburia intestinalis 0.95 | Streptococcus salivarius 1
